Measured values as given in publication PMC4492587.

Target: soluble varicella-zoster virus gE with a C-terminal (His)6 tag (varicella-zoster virus (strain not stated))
Test: pull-down; THY-1-His or control VZV gE-His bound to Ni-NTA or Talon columns; HCMV-infected cell lysate (PBS with 0.1% NP-40, or 25 mM Tris, 15 mM NaCl and 0.1% NP-40) incubated at 4°C overnight; washed with PBS, eluted with 250 mM imidazole, immunoblotted; only the target purified

B1: HCMV ICP8 (135 kD), from MRC-5 cells infected with HCMV AD169 (protein, UniProt P17147 1-1235)
chain: MSHEELTALAPVGPAAFLYFSRLNAETQEILATLSLCDRSSSVVIAPLLAGLTVEADFGVSVRTPVLCYDGGVLTKVTSFCPFALYFHHTQGIVAFTEDHGDVHRLCEDARQKYALEAYMPEADRVPTDLAALCAAVGCQASETTVHVVVGNGLKEFLFAGQLIPCVEEATTVRLHGGEAVRVPLYPPTLFNSLQLDAEADEVSLDARSAFVEARGLYVPAVSETLFYYVYTSWCQSLRFSEPRVLIEAALRQFVHDSQQSVKLAPHKRYLGYMSQRLSSLEKDHLMLSDAVVCELAFSFASVFFDSAYQPAESMLFSEWPLVTNATDHRDLIRALTELKLHLSTHVAALVFSANSVLYQHRLVYLQSSARHPSAGGTASQETLLKAIQFTNGLSAACEDVYNDARKVLKFQGAPLKDERYGPQHLALVCGTCPQLVSGFVWYLNRVSVYNTGLSGSSTLTNHLVGCAAGLCEACGGTCCHTCYQTAFVRVRTRLPVVPKQPKKEPCVITVQSRFLNDVDILGSFGRRYNVDAKDGGLDGKGDDGVPGGGAGGGGGRDVSGGPSDGLGGGRGGGGGGDSGGMMGRGGRMLGASVDRTYRLNRILDYCRKMRLIDPVTGEDTFSAHGKSDFVAVFSALNKFVDDEALGFVSEVRLKSSRDEVAGATQAFNLDLNPYAVAFQPLLAYAYFRSVFYVIQNVALITATSYIVDNPLTTNLVSKWMTQHFQSIHGAFSTTSSRKGFLFTKQIKSSKNSDHDRLLDFRLYAQGTYAVVPMEIKLSRLSVPTLIMVRVKNRPIYRAGKGNAGSVFFRRDHVPRRNPAKGCLGFLLYRHHERLFPECGLPCLQFWQKVCSNALPKNVPIGDMGEFNAFVKFLVAVTADYQEHDLLDVAPDCVLSYVESRFHNKFLCYYGFKDYIGSLHGLTTRLTTQNHAQFPHVLGASPRFSSPAEFALHVKGLKTAGVPAPMAATVARESLVRSVFEHRSLVTVPVSVEKYAGINNSKEIYQFGQIGYFSGNGVERSLNVSSMSGQDYRFMRQRYLLATRLADVLIKRSRRENVLFDADLIKNRVMLALDAENLDCDPEVMAVYEILSVREEIPASDDVLFFVDGCEALAASLMDKFAALQEQGVEDFSLENLRRVLDADAQRLTDAAGGEVHDLSALFAPSGVGAASGVGGGGLLLGESVAGNSICFGVPGETGGGCFLVNAGEDEAGGVGGSSGGGGGSGLLPAKRSRL
B1 was tested, and the binding was “no binding”.

These are yes or no findings as the source states them, for the method shown. In cells and extracts the contact can be indirect.
